The list shows a part of the results. Shown are side measurements of this screen, not its main read-out; they come without a call. Most of these compounds were active or inconclusive in the main read-out, so they are no random draw. The note in brackets gives the kind of curve behind each potency; many fits are weak.
Experiment: qHTS Assay for Lipid Storage Modulators in Drosophila S3 Cells;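 for cell number change: cells counted by Cell Tracker Red CMTPX staining in the red channel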
Details: BODIPY lipid droplet fluorescence, 18-24 h; for cell number change: measured here: cell count max response, cells fed with added oleic acid
Method in brief: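 Drosophila S3 cells got compounds at several concentrations plus oleic acid (400 uM solution). Laser-scanning cytometry with 488 nm excitation read lipid droplets at 500-530 nm and cells at 575-640 nm. Percent activity was relative to 20 uM Triacsin C.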

[1] = measured here: lipid fluorescence (Fed channel) AC50, cells fed with added oleic acid
[2] = measured here: cell number channel AC50, cells fed with added oleic acid

SMILES	cell number change	AC50 [1]	AC50 [2]
Cc1nc(N2CCOCC2)nc(N2CCCC2)c1[N+](=O)[O-]	7.61%	29.1 µM [rising, single point]	
CCN(CC(O)CON=C1c2ccccc2-c2ccccc21)S(=O)(=O)c1ccc(C)cc1 (stereo unspecified)	-1.47%	32.6 µM [falling, single point]	
CCCCn1c(NC(=O)c2ccccc2)nc2ccccc21	-25.9%	29.1 µM [falling, single point]	
Cc1ccc(NC(=O)c2ccc3[nH]c(=O)c(=O)[nH]c3c2)nc1	8.02%	29.1 µM [rising, single point]	
CCn1ncc(N(C)N)c(Cl)c1=O	-3.73%	0.651 µM [falling, single point]	0.651 µM [falling, single point]
O=C(NCC1CCCO1)c1cccc(Br)c1 (stereo unspecified)	-7.34%	0.651 µM [falling, full curve]	
COc1ccc(N(CC(=O)Nc2ccc3c(c2)OCO3)S(=O)(=O)c2ccc(F)cc2)cc1	12.1%	18.4 µM [rising, single point]	
COc1ccc(C(=O)N[C@H](C(=O)N2CCN(c3ccccc3F)CC2)C(C)C)cc1	21.8%		0.103 µM [rising, full curve]
O=C1NC(Cc2ccccc2)c2nc3ccccc3c(=O)n2-c2ccc(Cl)cc21 (stereo unspecified)		7.31 µM [rising, partial curve]	
Cc1ccc(NC(=O)Cc2nnc(SCC(=O)NC3=NCCS3)n2C)cc1	9.83%	18.4 µM [rising, single point]	
Cc1cc(C)c(NC(=O)CN2C(=O)NC3(CCCCC3)C2=O)c(Cl)c1	19.7%		0.0259 µM [rising, full curve, poor fit]
Cc1sc(NC(=O)c2ccc(Br)s2)c(C(N)=O)c1C	-5.42%		0.146 µM [rising, full curve, poor fit]
Cc1cccc(C)c1N1CCN(C(=O)N2CCCCC2)CC1	-28.3%	0.517 µM [falling, full curve]	
COc1ccc(-c2oc(=O)c3cc(OC)c(OC)cc3c2C(F)(F)F)cc1	22.6%	1.46 µM [rising, full curve]	
CCN(C(=O)CN1c2ccccc2CC1C)c1c(N)n(Cc2ccccc2)c(=O)[nH]c1=O (stereo unspecified)	-56%	20.6 µM [falling, partial curve]	5.8 µM [falling, full curve]
CCCc1c(C(=O)N/N=C/c2cccc3ccccc23)nnn1-c1nonc1N	-5.34%	20.6 µM [falling, partial curve]	
COc1cc(OC)cc(C(=O)NNC(=S)Nc2ccc(S(N)(=O)=O)cc2)c1	-19.3%		0.146 µM [falling, full curve, poor fit]
COC(=O)CC1COc2ccccc2N1C(=O)c1ccc(OC)cc1 (stereo unspecified)		13 µM [rising, partial curve]	
O=C(Nc1ccc2c(c1)oc1ccccc12)c1ccc2c(c1)OCO2	-51.2%	5.17 µM [falling, full curve, poor fit]	20.6 µM [falling, partial curve]
COc1cc(OC)cc(C(=O)NC(=S)N2CCCCC2c2cccnc2)c1 (stereo unspecified)	-1.62%	29.1 µM [falling, single point]	
Nc1c(N2CCCCC2)c(=O)[nH]c(=O)n1-c1ccccc1	-7.75%	29.1 µM [falling, partial curve]	
CCOC(=O)C1CCN(C(=S)Nc2cccc(C)c2C)CC1	0.485%	29.1 µM [falling, single point]	

Given bar-delimited: 13 of the compounds above.
SMILES | cell number change | AC50 [1] | AC50 [2]
Cc1ccc(NC(=O)Cc2nnc(SCC(=O)NC3=NCCS3)n2C)cc1 | 9.83% | 18.4 µM [rising, single point] | 
Cc1cc(C)c(NC(=O)CN2C(=O)NC3(CCCCC3)C2=O)c(Cl)c1 | 19.7% |  | 0.0259 µM [rising, full curve, poor fit]
Cc1sc(NC(=O)c2ccc(Br)s2)c(C(N)=O)c1C | -5.42% |  | 0.146 µM [rising, full curve, poor fit]
Cc1cccc(C)c1N1CCN(C(=O)N2CCCCC2)CC1 | -28.3% | 0.517 µM [falling, full curve] | 
COc1ccc(-c2oc(=O)c3cc(OC)c(OC)cc3c2C(F)(F)F)cc1 | 22.6% | 1.46 µM [rising, full curve] | 
CCN(C(=O)CN1c2ccccc2CC1C)c1c(N)n(Cc2ccccc2)c(=O)[nH]c1=O (stereo unspecified) | -56% | 20.6 µM [falling, partial curve] | 5.8 µM [falling, full curve]
CCCc1c(C(=O)N/N=C/c2cccc3ccccc23)nnn1-c1nonc1N | -5.34% | 20.6 µM [falling, partial curve] | 
COc1cc(OC)cc(C(=O)NNC(=S)Nc2ccc(S(N)(=O)=O)cc2)c1 | -19.3% |  | 0.146 µM [falling, full curve, poor fit]
COC(=O)CC1COc2ccccc2N1C(=O)c1ccc(OC)cc1 (stereo unspecified) |  | 13 µM [rising, partial curve] | 
O=C(Nc1ccc2c(c1)oc1ccccc12)c1ccc2c(c1)OCO2 | -51.2% | 5.17 µM [falling, full curve, poor fit] | 20.6 µM [falling, partial curve]
COc1cc(OC)cc(C(=O)NC(=S)N2CCCCC2c2cccnc2)c1 (stereo unspecified) | -1.62% | 29.1 µM [falling, single point] | 
Nc1c(N2CCCCC2)c(=O)[nH]c(=O)n1-c1ccccc1 | -7.75% | 29.1 µM [falling, partial curve] | 
CCOC(=O)C1CCN(C(=S)Nc2cccc(C)c2C)CC1 | 0.485% | 29.1 µM [falling, single point] | 

Later entries.

SMILES	cell number change	AC50 [1]	AC50 [2]
CCC(=NCc1ccccc1)c1c(C(F)(F)F)[nH]n(-c2nc3ccccc3s2)c1=O	8.55%		
CCC(C)(C(=O)NC1CCCC1)N(C(=O)CNC(C)=O)c1ccc(C)cc1 (stereo unspecified)	-8.25%		
CCOc1ccccc1N1CCN(C(=O)c2cccc(S(=O)(=O)N3CCOCC3)c2)CC1	-7.41%	1.03 µM [rising, partial curve, poor fit]	0.731 µM [falling, single point]
CC(C)(C)c1ccc(C(=O)Nc2ccc(C(=O)N3CCOCC3)cc2)cc1	-8.72%		
C(=C\c1ccc(/C=C/c2ccccc2)nn1)/c1ccccc1	3.64%		
COC(=O)c1ccc(C(=O)OC)c(NS(C)(=O)=O)c1	6.49%		
Cc1ccc(C(=O)Nc2ccc(F)cc2)cc1NC1=NC2CS(=O)(=O)CC2S1 (stereo unspecified)	9.28%		
Cc1ccc(N(C(C)C(=O)N2CCCC2)S(C)(=O)=O)cc1 (stereo unspecified)	33.8%		
COc1ccc(/C=C/CN2CCN(Cc3cccc(OC)c3)C(CCO)C2)cc1 (stereo unspecified)	-7.73%		2.31 µM [falling, single point]
COc1ccc(NC(=O)C2CCCN(S(=O)(=O)c3cccnc3)C2)cc1 (stereo unspecified)	-12.9%	0.82 µM [rising, partial curve]	
Cc1cc(Cl)cc2c(N=Nc3ccccc3C(=O)O)c(O)[nH]c12	12.9%		
O=C(C[n+]1cn(C(F)F)c2ccccc21)c1ccc(Br)cc1	65.5%		32.6 µM [rising, partial curve]
COC(=O)c1ccc(CNC(=O)C2CCC(=O)N(C3CCCCCC3)C2)cc1 (stereo unspecified)		29.1 µM [rising, single point]	
Cc1cc(C(=O)N/N=C/c2cccs2)no1	28.2%	0.00461 µM [rising, full curve, poor fit]	0.00517 µM [rising, full curve, poor fit]
CCc1ccc2nc(NC3=NCN(CCN4CCOCC4)CN3)nc(C)c2c1	9.39%		
Fc1ccccc1Nc1nc(Cl)nc(Cl)n1		1.46 µM [rising, full curve, poor fit]	
Cc1nn(C)c(C(=O)N/N=C/c2cccnc2)c1Cl	1.17%		
COc1ccc(NC(=O)c2sc3nc(N4CCOCC4)c4c(c3c2N)CC(C(C)C)OC4)c(OC)c1 (stereo unspecified)	-3.36%		
Cc1cc(C)c[n+](C(C)C(=O)c2ccc(-c3ccccc3)cc2)c1 (stereo unspecified)	-29.4%	29.1 µM [falling, single point]	
Cn1nc(C(=O)NCc2ccc(F)cc2)c2c1-c1ccccc1S(=O)(=O)C2	-22.6%	0.259 µM [falling, full curve, poor fit]	
O=C(NNC(=O)c1ccccc1F)c1cccc(-n2cccc2)c1		0.461 µM [falling, single point]	
O=C(/C=C/c1ccc(Cl)cc1Cl)N1CCc2ccccc21		0.326 µM [rising, full curve, poor fit]	0.366 µM [rising, partial curve, poor fit]

SMILES	cell number change	AC50 [1]	AC50 [2]
C[C@@H]1C=C(C(=O)N2CCN(Cc3ccccc3)CC2)O[C@H](OCc2ccc(CO)cc2)C1	-1.13%		
COc1ccc(CNC(=O)CCn2nc(C)c3c(C)n(-c4ccccc4)nc3c2=O)c(OC)c1			0.231 µM [rising, full curve, poor fit]
O=C(CSc1nnnn1-c1ccc(Cl)cc1)N1CCc2ccccc2C1	-21.1%		
COc1ccc(-n2c(CN3CCN(c4ccccc4OC)CC3)nc3ccc([N+](=O)[O-])cc3c2=O)c(OC)c1	-6.94%		
CC(C)[C@H](NC(=O)c1ccco1)C(=O)NC12CC3CC(CC(C3)C1)C2	68.3%	29.1 µM [rising, single point]	29.1 µM [rising, single point]
COc1ccc(-n2c(Cc3cccn3C)nnc2SCC(=O)Nc2cccc(Cl)c2)cc1	18.9%		0.082 µM [rising, full curve, poor fit]
CCCOc1ccc(Br)cc1/C=N/NC(=O)c1cc(OC)c(OC)c(OC)c1	13.6%		
CCOc1ccc(C(=O)CCC(=O)Nc2ncccc2O)cc1	36.1%		11.6 µM [rising, partial curve, poor fit]
COC(=O)c1[nH]c2ccc(C)cc2c1NC(=O)CCN1CCN(C2CCCCC2)CC1	-6.03%	23.1 µM [falling, partial curve]	
COc1ccc(-c2nc(CS(=O)CC(=O)NC3CCCCC3)c(C)o2)cc1 (stereo unspecified)	-2.06%	0.58 µM [falling, single point]	
Cc1nn(C(=O)c2cccc([N+](=O)[O-])c2)c(C)c1Br	-8.33%	29.1 µM [falling, single point]	
COc1cc(NC(=O)C2CCN(S(=O)(=O)c3ccc4c(c3)CC(C)N4C(C)=O)CC2)cc(OC)c1OC (stereo unspecified)	27.7%	18.4 µM [rising, single point]	
CCN(C(=O)COC(=O)c1cc(-c2cccs2)nc2ccccc12)C1CCS(=O)(=O)C1 (stereo unspecified)	20.3%		
COc1ccc(CN(C)C(=O)c2oc3ccccc3c2CSC)cc1F	15.1%	29.1 µM [falling, single point]	
C=CCn1c(SC(C)C(N)=O)nc2sc(CC)cc2c1=O (stereo unspecified)	30.4%		
O=C(N/N=C/c1ccc[nH]1)c1cc(-c2ccc(Cl)cc2)nc2ccccc12	17%		
COc1ccc(CNc2oc(Cc3cccc4ccccc34)nc2C#N)cc1	-15.1%		6.51 µM [rising, single point]
COc1ccc(CCNC(=O)/C=C/c2ccco2)cc1OC	-12.6%	29.1 µM [falling, single point]	
O=C(N1CCCCC1)N1CCC(c2nc3ccccc3[nH]2)CC1	-8.76%		
Cc1ccc(S(=O)(=O)N2CCOC2CNC(=O)C(=O)NCc2ccc3c(c2)OCO3)cc1 (stereo unspecified)	26.6%	18.4 µM [rising, partial curve]	
COc1cc(/C=N/Nc2nc(=O)[nH]nc2C)cc(OC)c1O	19.5%	4.61 µM [rising, single point]	
